Results from patent publication US20230114866A1 (published 2023).

Experiment: peptide synthesis
Details: conjugation step

BCN-LPETGG
conjugation yield: 72%
